# Measured values from the supplement of paper PMC8728848.
# The other results are listed elsewhere or left out.
# B1: Aap brpt (Staphylococcus epidermidis) (protein)
# chain: VDGDPITSTEEIPFDKKREFDPNLAPGTEKVVQKGEPGTKTITTPTTKNPLTGEKVGEGEPTEKITKQPVDEIVHYGGEEIKTGHKDEFDPNAPKGSQTTQPGKPGVKNPDTGEVVTPPVDDVTKYGPVDGDPITSTEEIPFDKKREFDPNLAPGTEKVVQKGEPGTKTITTPTTKNPLTGEKVGEGEPTEKITKQPVDEIVHYGGEEIKPGHKDEFDPNAPKGSQEDVPGKPGVKNPDTGEVVTPPVDDVTKYGPVDGDSITSTEEIPFDKKREFDPNLAPGTEKVVQKGEPGTKTITTPTTKNPLTGEKVGEGEPTEKITKQPVDEIVHYGGEQIPQGHKDEFDPNAPVDSKTEVPGKPGVKNPDTGEVVTPPVDDVTKYGPVDGDSITSTEEIPFDKKREFDPNLAPGTEKVVQKGEPGTKTITTPTTKNPLTGEKVGEGKSTEKVTKQPVDEIVEYGPTK
# How the values were obtained:
# Test in all cases: glycan array binding signal (z-score within array); higher = stronger binding
# Settings in all cases: glycan notation: IUPAC condensed, linker removed
# [1] = molecular target: Neu5Ac(a2-6)Gal(b1-4)GlcNAc(b1-6)GalNAc
# How it was run: (§1)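 Columns mapping to the same glycan were averaged after glycan names were converted to IUPAC-condensed notation. The data come from 3228 arrays in the Consortium for Functional Glycomics database, limited to those with an available protein sequence. Binding is reported as a within-array Z-score averaged across arrays of one protein sequence and across linkers.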
# [2] = molecular target: Neu5Ac(a2-6)Gal(b1-4)GlcNAc(b1-6)[Gal(b1-3)GlcNAc(b1-3)]Gal(b1-4)Glc
# How it was run: as §1
# [3] = molecular target: Neu5Ac(a2-6)Gal(b1-4)GlcNAc(b1-6)[Gal(b1-3)]GalNAc
# How it was run: as §1
# [4] = molecular target: Neu5Ac(a2-6)Gal(b1-4)GlcNAc6S
# How it was run: as §1
# Neu5Ac(a2-6)GalNAc = molecular target: Neu5Ac(a2-6)GalNAc
# How it was run: as §1
# [5] = molecular target: Neu5Ac(a2-6)GalNAc(b1-4)GlcNAc
# How it was run: as §1
# [6] = molecular target: Neu5Ac(a2-6)GalNAc(b1-4)GlcNAc6S
# How it was run: as §1
# [7] = molecular target: Neu5Ac(a2-6)GlcNAc(b1-4)GlcNAc
# How it was run: as §1
# [8] = molecular target: Neu5Ac(a2-6)GlcNAc(b1-4)GlcNAc(b1-4)GlcNAc
# How it was run: as §1
# Neu5Ac(a2-8)Neu5Ac = molecular target: Neu5Ac(a2-8)Neu5Ac
# How it was run: as §1
# [9] = molecular target: Neu5Ac(a2-8)Neu5Ac(a2-3)Gal(b1-3)GalNAc(b1-4)[Neu5Ac(a2-3)]Gal(b1-4)Glc
# How it was run: as §1
# [10] = molecular target: Neu5Ac(a2-8)Neu5Ac(a2-3)Gal(b1-3)GalNAc(b1-4)[Neu5Ac(a2-8)Neu5Ac(a2-3)]Gal(b1-4)Glc
# How it was run: as §1
# [11] = molecular target: Neu5Ac(a2-8)Neu5Ac(a2-3)Gal(b1-4)Glc
# How it was run: as §1
# [12] = molecular target: Neu5Ac(a2-8)Neu5Ac(a2-3)Gal(b1-4)GlcNAc
# How it was run: as §1
# [13] = molecular target: Neu5Ac(a2-8)Neu5Ac(a2-3)[Gal(b1-3)GalNAc(b1-4)]Gal(b1-4)Glc
# How it was run: as §1
# [14] = molecular target: Neu5Ac(a2-8)Neu5Ac(a2-3)[GalNAc(b1-4)]Gal(b1-4)Glc
# How it was run: as §1
# [15] = molecular target: Neu5Ac(a2-8)Neu5Ac(a2-8)Neu5Ac
# How it was run: as §1
# [16] = molecular target: Neu5Ac(a2-8)Neu5Ac(a2-8)Neu5Ac(a2-3)Gal(b1-4)Glc
# How it was run: as §1
# [17] = molecular target: Neu5Ac(a2-8)Neu5Ac(a2-8)Neu5Ac(a2-3)[Gal(b1-3)GalNAc(b1-4)]Gal(b1-4)Glc
# How it was run: as §1
# [18] = molecular target: Neu5Ac(a2-8)Neu5Ac(a2-8)Neu5Ac(a2-3)[GalNAc(b1-4)]Gal(b1-4)Glc
# How it was run: as §1
# [19] = molecular target: Neu5Ac(a2-8)Neu5Ac(a2-8)Neu5Ac(a2-8)Neu5Ac(a2-3)[GalNAc(b1-4)]Gal(b1-4)Glc
# How it was run: as §1
# [20] = molecular target: Neu5Ac(a2-8)Neu5Gc(a2-3)Gal(b1-4)GlcNAc
# How it was run: as §1
# [21] = molecular target: Neu5Ac(b2-6)Gal(b1-4)GlcNAc
# How it was run: as §1
# Neu5Ac(b2-6)GalNAc = molecular target: Neu5Ac(b2-6)GalNAc
# How it was run: as §1
# [22] = molecular target: Neu5Ac9Ac(a2-3)Gal(b1-3)GlcNAc
# How it was run: as §1
# [23] = molecular target: Neu5Ac9Ac(a2-3)Gal(b1-4)GlcNAc
# How it was run: as §1
# [24] = molecular target: Neu5Ac9Ac(a2-6)Gal(b1-4)GlcNAc
# How it was run: as §1
# [25] = molecular target: Neu5Gc(a2-3)Gal(b1-3)GlcNAc
# How it was run: as §1
# [26] = molecular target: Neu5Gc(a2-3)Gal(b1-3)[Fuc(a1-4)]GlcNAc
# How it was run: as §1
# Neu5Gc(a2-3)Gal(b1-4)Glc = molecular target: Neu5Gc(a2-3)Gal(b1-4)Glc
# How it was run: as §1
# [27] = molecular target: Neu5Gc(a2-3)Gal(b1-4)GlcNAc
# How it was run: as §1
# [28] = molecular target: Neu5Gc(a2-3)Gal(b1-4)GlcNAc(b1-3)Gal(b1-4)GlcNAc(b1-2)Man(a1-3)[Neu5Gc(a2-3)Gal(b1-4)GlcNAc(b1-3)Gal(b1-4)GlcNAc(b1-2)Man(a1-6)]Man(b1-4)GlcNAc(b1-4)GlcNAc
# How it was run: as §1
# [29] = molecular target: Neu5Gc(a2-3)Gal(b1-4)[Fuc(a1-3)]GlcNAc
# How it was run: as §1
# [30] = molecular target: Neu5Gc(a2-6)Gal(b1-4)GlcNAc
# How it was run: as §1
# Neu5Gc(a2-6)GalNAc = molecular target: Neu5Gc(a2-6)GalNAc
# How it was run: as §1
# [31] = molecular target: Neu5Gc(a2-8)Neu5Ac(a2-3)Gal(b1-4)GlcNAc
# How it was run: as §1
# [32] = molecular target: Neu5Gc(a2-8)Neu5Gc(a2-3)Gal(b1-4)GlcNAc
# How it was run: as §1
# [33] = molecular target: Neu5Gc(a2-8)Neu5Gc(a2-3)Gal(b1-4)GlcNAc(b1-3)Gal(b1-4)GlcNAc
# How it was run: as §1
binder,measurement,setting,value
B1,glycan array binding signal (z-score),[1],-0.589
same,glycan array binding signal (z-score),[2],0.258
same,glycan array binding signal (z-score),[3],0.617
same,glycan array binding signal (z-score),[4],-2.06
same,glycan array binding signal (z-score),Neu5Ac(a2-6)GalNAc,1.84
same,glycan array binding signal (z-score),[5],0.115
same,glycan array binding signal (z-score),[6],-0.313
same,glycan array binding signal (z-score),[7],2.43
same,glycan array binding signal (z-score),[8],0.439
same,glycan array binding signal (z-score),Neu5Ac(a2-8)Neu5Ac,-1.61
same,glycan array binding signal (z-score),[9],0.293
same,glycan array binding signal (z-score),[10],0.903
same,glycan array binding signal (z-score),[11],-0.002
same,glycan array binding signal (z-score),[12],0.215
same,glycan array binding signal (z-score),[13],0.155
same,glycan array binding signal (z-score),[14],0.258
same,glycan array binding signal (z-score),[15],-0.353
same,glycan array binding signal (z-score),[16],0.938
same,glycan array binding signal (z-score),[17],-0.192
same,glycan array binding signal (z-score),[18],-0.549
same,glycan array binding signal (z-score),[19],-0.294
same,glycan array binding signal (z-score),[20],-1.18
same,glycan array binding signal (z-score),[21],0.577
same,glycan array binding signal (z-score),Neu5Ac(b2-6)GalNAc,-1.22
same,glycan array binding signal (z-score),[22],0.027
same,glycan array binding signal (z-score),[23],0.236
same,glycan array binding signal (z-score),[24],0.123
same,glycan array binding signal (z-score),[25],-0.638
same,glycan array binding signal (z-score),[26],0.751
same,glycan array binding signal (z-score),Neu5Gc(a2-3)Gal(b1-4)Glc,0.206
same,glycan array binding signal (z-score),[27],-1.29
same,glycan array binding signal (z-score),[28],-1.53
same,glycan array binding signal (z-score),[29],1.96
same,glycan array binding signal (z-score),[30],-0.165
same,glycan array binding signal (z-score),Neu5Gc(a2-6)GalNAc,-0.735
same,glycan array binding signal (z-score),[31],-0.611
same,glycan array binding signal (z-score),[32],-1.27
same,glycan array binding signal (z-score),[33],-1.35

# A stretch of the results above, as a working copy:
binder,measurement,setting,value
B1,glycan array binding signal (z-score),[26],0.751
same,glycan array binding signal (z-score),Neu5Gc(a2-3)Gal(b1-4)Glc,0.206
same,glycan array binding signal (z-score),[27],-1.29
